Experimental data reported in article PMC9606306.
Results are given in words; binding and its absence hold for the method and conditions named. Binding seen in cells or lysates may run through a third protein. Some binding calls cover weakened binding; strength is not graded here.

The chains behind the UniProt entries cited, without tags or fusion partners. Residues count along the entry.
UniProt P15941, residues 1182-1255: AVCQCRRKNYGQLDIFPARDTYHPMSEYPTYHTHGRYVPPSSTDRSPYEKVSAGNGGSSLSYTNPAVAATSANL

Molecular target: T1, ATAD3A, transfected in HEK293T cells (UniProt Q9NVI7)
T1 sequence: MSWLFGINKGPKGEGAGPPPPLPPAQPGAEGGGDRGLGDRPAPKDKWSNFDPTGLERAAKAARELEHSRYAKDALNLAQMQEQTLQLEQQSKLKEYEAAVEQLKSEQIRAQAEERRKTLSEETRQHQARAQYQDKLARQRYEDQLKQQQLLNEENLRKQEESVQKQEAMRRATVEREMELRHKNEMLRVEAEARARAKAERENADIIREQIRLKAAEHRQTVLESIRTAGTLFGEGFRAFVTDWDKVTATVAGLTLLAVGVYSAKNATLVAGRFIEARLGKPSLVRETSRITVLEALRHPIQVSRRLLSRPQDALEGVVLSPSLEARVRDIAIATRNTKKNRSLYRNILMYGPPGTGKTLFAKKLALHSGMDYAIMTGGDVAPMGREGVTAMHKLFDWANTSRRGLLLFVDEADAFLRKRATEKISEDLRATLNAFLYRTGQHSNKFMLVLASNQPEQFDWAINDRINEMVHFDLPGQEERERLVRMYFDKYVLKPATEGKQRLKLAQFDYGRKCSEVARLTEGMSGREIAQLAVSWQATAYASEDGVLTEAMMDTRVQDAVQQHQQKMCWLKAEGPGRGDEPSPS
Test: co-IP; HEK293T cells cotransfected with ATAD3A and pEGFP-MUC1-CD or pEGFP-MUC1-CD-AQA; lysates subjected to denatured co-IP

binding: binds
Substance: GFP-MUC1-CD (from UniProt P15941 1182-1255) (domain or fragment)
